PubChem BioAssay AID1508597, Cure First – 2020
This is an unselected part of the about 2,100 reagents, in one setting of the screen. 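Calls flag viability under 80% in either arm, not effects specific to rucaparib; the reference for percent is not stated.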 A number with no mark means an inactive call. A reagent listed more than once was tested more than once; the source does not tell the runs apart. No sequences are given here. The record does not give: the 100% reference.

Aim: 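Survival screen with siRNA in ovarian cancer cells derived from patients, with or without rucaparib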 (primary screen)
System: human ovarian carcinoma lines grown from tumours: OCI-P5x (papillary serous) and OCI-C5x (clear cell)
Reagents: siRNA pool against human genes, 1.25 pmol siRNA per well
Timing: 72 h or 96 h, depending on the cell culture
Treatment: rucaparib 20 µM (about IC30) or vehicle, present until read-out
Rucaparib or vehicle: Vehicle
Cell line: OCI-C5x (clear cell)
Read-out: 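ATP luminescence measured at 72 or 96 h according to the culture, then normalised and expressed as percent viability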
Direction: viability, normalised: higher = more viable cells remaining
Hit rule: 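Active when normalised viability falls below 80 percent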
Calls: active = viability under 80%; inactive = viability 80% or more

The opening 6 records, ahead of the listing:
target	technical replicate	viability, normalised (%)
DMAP1	1	45.4 (active)
DMAP1	2	54.6 (active)
DMAP1	3	33.6 (active)
FANCD2	1	48.9 (active)
FANCD2	1	63.5 (active)
FANCD2	2	57.3 (active)

Main list, repeating the preview:
target	technical replicate	viability, normalised (%)
DMAP1	1	45.4 (active)
DMAP1	2	54.6 (active)
DMAP1	3	33.6 (active)
FANCD2	1	48.9 (active)
FANCD2	1	63.5 (active)
FANCD2	2	57.3 (active)
FANCD2	2	56.2 (active)
FANCD2	3	51 (active)
FANCD2	3	55.2 (active)
NEIL1	1	53.2 (active)
NEIL1	1	67.3 (active)
NEIL1	2	58.6 (active)
NEIL1	2	48.9 (active)
NEIL1	3	67.4 (active)
NEIL1	3	53.1 (active)
TP53BP1	1	12.2 (active)
TP53BP1	1	79.6 (active)
TP53BP1	2	69.9 (active)
TP53BP1	2	39.2 (active)
TP53BP1	3	84.1
TP53BP1	3	63.7 (active)
MIER1	1	53.3 (active)
MIER1	2	49.3 (active)
MIER1	3	63.2 (active)
HDAC10	1	40.8 (active)
HDAC10	2	39.9 (active)
HDAC10	3	55.8 (active)
KCTD13	1	48 (active)
KCTD13	2	46.5 (active)
KCTD13	3	49.3 (active)
IGF2R	1	77.9 (active)
IGF2R	2	48.1 (active)
IGF2R	3	39.6 (active)
MAP3K7	1	50.4 (active)
MAP3K7	2	76.6 (active)
MAP3K7	3	73.5 (active)
UNG	1	105
UNG	2	63.9 (active)
UNG	3	60.7 (active)
CAMK1D	1	64.3 (active)
CAMK1D	2	51.3 (active)
CAMK1D	3	54.4 (active)
CDKL4	1	42 (active)
CDKL4	2	56.3 (active)
CDKL4	3	65.4 (active)
DHX38	1	60 (active)
DHX38	2	55 (active)
DHX38	3	51.9 (active)
RSF1	1	58.6 (active)
RSF1	2	48.3 (active)
RSF1	3	49.6 (active)
RAD54L	1	37.9 (active)
RAD54L	1	41.4 (active)
RAD54L	2	39.9 (active)
RAD54L	2	41.6 (active)
RAD54L	3	56.4 (active)
RAD54L	3	59.2 (active)
LIMK1	1	65 (active)
LIMK1	2	51.1 (active)
LIMK1	3	52.8 (active)
CLDN1	1	49.9 (active)
CLDN1	2	59 (active)
CLDN1	3	41.1 (active)
FXR2	1	61.3 (active)
FXR2	2	63.1 (active)
FXR2	3	54 (active)
DHX36	1	43.7 (active)
DHX36	2	56 (active)
DHX36	3	52.4 (active)
GUCY2D	1	41.7 (active)
GUCY2D	2	39.2 (active)
GUCY2D	3	40.9 (active)
CHD1L	1	59.8 (active)
CHD1L	2	72.8 (active)
CHD1L	3	68.6 (active)
